{"source": "paper PMC10544575", "about": "“Inhibitory mechanism of vortioxetine on CYP450 enzymes in human and rat liver microsomes” (Frontiers in Pharmacology, 2023)", "origin": "cited, not measured here", "test_system": "vortioxetine metabolism", "conditions": "previous study; ref Xu et al., 2021; cited from earlier work", "data": [{"smiles": "CCCNCC(O)COc1ccccc1C(=O)CCc1ccccc1", "note": "(stereo not shown) [propafenone]", "values": [{"measurement": "effect on vortioxetine metabolism", "result": "inhibitory effect"}]}]}
